Assay results: PMC9604285
These are yes or no findings as the source states them, for the method shown. In cells and extracts the contact can be indirect. A yes stands for co-enrichment or nearness to the bait. Other partners may have been found.

Sequences of proteins named here, by UniProt entry; tags and fusion partners are left off.
UniProt P50667: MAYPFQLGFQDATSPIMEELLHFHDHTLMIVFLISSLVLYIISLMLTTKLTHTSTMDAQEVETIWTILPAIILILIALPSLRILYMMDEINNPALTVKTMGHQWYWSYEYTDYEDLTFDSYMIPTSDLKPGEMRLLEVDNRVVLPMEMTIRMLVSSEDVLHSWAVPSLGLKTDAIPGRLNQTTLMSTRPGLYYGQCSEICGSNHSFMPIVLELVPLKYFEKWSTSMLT

Biological target: T1, recombinant rat group IIA secreted phospholipase A2 (rGIIA) (rat) (UniProt P14423)
T1 sequence: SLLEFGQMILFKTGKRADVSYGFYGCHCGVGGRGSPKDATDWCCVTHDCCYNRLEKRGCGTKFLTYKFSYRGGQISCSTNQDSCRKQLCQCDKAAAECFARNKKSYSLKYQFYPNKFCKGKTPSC
Test: affinity purification with mass spectrom; only the target purified

binding: binds
Substance: subunit II of cytochrome c oxidase (CCOX-II) (from UniProt P50667 1-228)
